From the supplement of paper PMC10849652
Some of the results follow.

Protein sequences, listed by entry. Tags and fused reporters are not part of them. Lines headed by an entry give the natural chain unless they say otherwise; changes in a name come on top.
UniProt P15289: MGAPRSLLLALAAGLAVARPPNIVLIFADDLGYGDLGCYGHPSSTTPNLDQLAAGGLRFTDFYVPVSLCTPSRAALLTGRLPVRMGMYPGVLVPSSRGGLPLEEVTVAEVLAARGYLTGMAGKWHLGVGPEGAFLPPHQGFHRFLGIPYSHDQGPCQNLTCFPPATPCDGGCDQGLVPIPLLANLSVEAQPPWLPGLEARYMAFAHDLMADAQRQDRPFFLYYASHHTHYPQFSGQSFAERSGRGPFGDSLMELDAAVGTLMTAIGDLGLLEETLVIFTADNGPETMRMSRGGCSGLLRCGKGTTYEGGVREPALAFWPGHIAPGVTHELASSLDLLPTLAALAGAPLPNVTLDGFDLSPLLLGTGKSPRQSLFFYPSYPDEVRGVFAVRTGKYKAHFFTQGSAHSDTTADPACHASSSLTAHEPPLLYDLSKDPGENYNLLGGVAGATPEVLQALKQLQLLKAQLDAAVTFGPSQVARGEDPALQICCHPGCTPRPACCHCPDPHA
UniProt Q15904, whole entry, looked up: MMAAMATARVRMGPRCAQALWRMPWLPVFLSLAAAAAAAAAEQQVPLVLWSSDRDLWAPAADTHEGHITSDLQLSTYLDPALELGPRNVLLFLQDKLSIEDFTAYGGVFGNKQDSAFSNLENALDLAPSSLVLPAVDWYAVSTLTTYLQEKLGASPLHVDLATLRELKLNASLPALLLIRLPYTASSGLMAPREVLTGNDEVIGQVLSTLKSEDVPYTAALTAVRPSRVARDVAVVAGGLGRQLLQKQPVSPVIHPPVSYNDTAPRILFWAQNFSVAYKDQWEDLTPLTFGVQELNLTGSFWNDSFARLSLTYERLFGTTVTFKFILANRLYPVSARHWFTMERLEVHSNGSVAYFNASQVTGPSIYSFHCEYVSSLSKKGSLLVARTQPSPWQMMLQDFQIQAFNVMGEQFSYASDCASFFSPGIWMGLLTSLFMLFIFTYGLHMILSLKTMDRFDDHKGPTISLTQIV
UniProt Q9Y4P1: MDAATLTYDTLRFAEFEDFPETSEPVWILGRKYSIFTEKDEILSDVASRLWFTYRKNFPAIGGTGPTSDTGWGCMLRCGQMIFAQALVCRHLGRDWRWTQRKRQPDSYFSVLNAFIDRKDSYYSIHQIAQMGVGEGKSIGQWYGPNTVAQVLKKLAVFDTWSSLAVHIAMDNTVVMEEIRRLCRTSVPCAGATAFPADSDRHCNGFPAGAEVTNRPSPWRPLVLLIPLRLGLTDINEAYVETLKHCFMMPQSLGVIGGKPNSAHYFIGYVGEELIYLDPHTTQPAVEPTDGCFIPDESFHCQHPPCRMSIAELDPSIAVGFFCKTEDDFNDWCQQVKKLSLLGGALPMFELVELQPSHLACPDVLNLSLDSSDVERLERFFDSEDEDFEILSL
UniProt Q9Y294, whole entry, looked up: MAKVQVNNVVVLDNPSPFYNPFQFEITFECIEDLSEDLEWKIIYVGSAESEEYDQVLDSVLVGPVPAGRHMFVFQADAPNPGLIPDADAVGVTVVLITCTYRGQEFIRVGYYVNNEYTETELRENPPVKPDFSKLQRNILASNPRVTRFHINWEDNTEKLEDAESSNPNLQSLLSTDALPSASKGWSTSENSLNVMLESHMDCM
UniProt P56381: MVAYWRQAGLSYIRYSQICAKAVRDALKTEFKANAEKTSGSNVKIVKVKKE
UniProt Q9H2C2: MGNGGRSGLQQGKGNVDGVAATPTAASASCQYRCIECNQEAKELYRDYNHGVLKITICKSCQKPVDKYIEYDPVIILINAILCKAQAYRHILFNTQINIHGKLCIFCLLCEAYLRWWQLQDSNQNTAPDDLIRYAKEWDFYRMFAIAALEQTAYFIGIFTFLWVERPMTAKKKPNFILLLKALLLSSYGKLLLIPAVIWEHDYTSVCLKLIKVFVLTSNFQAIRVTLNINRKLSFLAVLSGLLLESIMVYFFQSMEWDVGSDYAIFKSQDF
UniProt Q92747, whole entry, looked up: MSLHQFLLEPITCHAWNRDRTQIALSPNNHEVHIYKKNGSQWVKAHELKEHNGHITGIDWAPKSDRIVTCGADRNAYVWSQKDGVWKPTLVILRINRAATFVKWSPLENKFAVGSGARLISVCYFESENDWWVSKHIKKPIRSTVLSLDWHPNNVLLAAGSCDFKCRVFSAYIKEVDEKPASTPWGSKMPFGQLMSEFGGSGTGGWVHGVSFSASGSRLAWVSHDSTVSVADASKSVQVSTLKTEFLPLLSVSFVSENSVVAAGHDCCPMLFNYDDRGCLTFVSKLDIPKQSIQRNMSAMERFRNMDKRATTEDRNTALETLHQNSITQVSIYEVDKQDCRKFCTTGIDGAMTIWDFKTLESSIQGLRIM
UniProt P23634: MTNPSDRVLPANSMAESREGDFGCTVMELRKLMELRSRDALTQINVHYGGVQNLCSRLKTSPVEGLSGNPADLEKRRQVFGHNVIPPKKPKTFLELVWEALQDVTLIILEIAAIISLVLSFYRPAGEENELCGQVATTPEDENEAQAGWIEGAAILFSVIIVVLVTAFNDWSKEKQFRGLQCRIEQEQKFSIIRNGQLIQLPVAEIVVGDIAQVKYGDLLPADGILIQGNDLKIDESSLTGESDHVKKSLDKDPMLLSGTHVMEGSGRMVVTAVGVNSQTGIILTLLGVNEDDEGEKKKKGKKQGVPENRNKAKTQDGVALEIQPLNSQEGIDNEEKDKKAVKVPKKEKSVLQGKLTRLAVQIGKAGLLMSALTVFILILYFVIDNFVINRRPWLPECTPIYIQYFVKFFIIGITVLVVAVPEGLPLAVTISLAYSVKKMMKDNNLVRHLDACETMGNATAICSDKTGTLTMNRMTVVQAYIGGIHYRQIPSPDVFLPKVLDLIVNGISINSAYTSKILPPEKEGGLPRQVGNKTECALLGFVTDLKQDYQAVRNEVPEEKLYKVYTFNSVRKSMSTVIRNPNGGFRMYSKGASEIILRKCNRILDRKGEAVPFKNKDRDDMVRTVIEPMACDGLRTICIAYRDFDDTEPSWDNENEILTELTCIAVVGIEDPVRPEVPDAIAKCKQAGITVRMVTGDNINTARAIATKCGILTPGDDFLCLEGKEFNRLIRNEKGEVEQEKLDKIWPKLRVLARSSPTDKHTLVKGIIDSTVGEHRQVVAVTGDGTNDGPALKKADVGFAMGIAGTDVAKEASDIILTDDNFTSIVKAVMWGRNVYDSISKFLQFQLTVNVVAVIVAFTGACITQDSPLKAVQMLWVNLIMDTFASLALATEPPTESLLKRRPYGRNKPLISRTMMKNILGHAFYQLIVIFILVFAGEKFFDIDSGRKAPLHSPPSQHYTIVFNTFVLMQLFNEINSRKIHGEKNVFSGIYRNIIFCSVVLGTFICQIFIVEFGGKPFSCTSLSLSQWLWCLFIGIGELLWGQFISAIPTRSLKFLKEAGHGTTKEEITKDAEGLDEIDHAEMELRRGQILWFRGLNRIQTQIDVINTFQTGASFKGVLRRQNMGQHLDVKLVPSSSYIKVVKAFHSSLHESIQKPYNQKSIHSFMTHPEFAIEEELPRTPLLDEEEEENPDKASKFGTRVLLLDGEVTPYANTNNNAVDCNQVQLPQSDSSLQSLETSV
UniProt P30049: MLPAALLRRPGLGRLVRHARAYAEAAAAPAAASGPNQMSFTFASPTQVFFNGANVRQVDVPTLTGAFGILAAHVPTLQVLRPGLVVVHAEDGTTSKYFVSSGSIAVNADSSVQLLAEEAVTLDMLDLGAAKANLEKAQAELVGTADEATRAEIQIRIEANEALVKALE
UniProt Q93050, whole entry, looked up: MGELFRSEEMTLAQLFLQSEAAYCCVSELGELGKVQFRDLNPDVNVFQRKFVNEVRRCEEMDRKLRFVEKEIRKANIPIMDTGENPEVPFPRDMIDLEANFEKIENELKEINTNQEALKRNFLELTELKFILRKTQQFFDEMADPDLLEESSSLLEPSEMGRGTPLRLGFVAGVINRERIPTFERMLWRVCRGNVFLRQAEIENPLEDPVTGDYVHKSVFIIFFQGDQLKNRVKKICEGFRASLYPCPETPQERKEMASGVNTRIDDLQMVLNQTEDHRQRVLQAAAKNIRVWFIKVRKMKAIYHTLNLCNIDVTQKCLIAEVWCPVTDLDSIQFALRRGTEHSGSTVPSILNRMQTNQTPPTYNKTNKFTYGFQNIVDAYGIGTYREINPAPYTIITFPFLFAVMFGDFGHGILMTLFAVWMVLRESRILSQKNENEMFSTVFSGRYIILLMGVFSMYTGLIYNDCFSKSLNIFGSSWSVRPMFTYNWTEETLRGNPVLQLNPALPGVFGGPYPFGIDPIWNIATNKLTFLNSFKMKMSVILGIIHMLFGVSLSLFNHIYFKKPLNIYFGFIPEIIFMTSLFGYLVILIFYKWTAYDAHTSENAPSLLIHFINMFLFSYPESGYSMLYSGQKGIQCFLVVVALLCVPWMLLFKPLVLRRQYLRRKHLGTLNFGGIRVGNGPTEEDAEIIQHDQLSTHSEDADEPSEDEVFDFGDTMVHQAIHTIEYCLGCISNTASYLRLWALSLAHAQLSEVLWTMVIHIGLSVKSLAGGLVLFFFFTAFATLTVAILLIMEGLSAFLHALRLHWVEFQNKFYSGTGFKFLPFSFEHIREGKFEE
UniProt Q9NQ11: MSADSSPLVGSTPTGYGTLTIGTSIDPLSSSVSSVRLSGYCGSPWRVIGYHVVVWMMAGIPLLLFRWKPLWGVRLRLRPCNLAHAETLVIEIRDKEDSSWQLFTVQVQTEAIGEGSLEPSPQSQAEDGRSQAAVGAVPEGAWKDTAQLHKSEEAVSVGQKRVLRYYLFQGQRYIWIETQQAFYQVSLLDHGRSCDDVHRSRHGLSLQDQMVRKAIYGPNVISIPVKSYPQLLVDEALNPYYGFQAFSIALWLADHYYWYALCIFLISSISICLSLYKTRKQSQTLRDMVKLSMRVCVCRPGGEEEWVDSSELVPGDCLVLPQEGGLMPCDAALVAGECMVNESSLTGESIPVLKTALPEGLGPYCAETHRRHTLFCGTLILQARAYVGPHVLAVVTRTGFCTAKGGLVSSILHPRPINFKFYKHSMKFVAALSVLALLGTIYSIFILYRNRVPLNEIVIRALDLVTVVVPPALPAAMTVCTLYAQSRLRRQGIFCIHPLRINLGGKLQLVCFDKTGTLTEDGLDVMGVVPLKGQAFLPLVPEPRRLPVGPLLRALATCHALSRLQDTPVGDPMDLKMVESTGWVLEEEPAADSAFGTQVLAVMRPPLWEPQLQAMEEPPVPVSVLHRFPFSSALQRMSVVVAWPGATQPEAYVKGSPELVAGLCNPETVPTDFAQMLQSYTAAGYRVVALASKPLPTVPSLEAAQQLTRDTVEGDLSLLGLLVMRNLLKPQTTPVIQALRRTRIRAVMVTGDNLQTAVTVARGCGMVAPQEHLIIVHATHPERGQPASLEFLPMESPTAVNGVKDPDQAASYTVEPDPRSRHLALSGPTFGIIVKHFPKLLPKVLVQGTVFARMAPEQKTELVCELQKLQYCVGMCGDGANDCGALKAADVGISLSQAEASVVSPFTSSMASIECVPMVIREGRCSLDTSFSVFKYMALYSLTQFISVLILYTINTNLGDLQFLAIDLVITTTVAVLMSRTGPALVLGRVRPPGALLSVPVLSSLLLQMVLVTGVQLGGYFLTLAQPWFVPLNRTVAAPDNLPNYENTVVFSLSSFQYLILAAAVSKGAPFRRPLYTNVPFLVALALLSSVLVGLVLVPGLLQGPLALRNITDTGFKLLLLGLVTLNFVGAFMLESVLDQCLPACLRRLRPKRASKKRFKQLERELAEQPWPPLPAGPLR
UniProt P61421, whole entry, looked up: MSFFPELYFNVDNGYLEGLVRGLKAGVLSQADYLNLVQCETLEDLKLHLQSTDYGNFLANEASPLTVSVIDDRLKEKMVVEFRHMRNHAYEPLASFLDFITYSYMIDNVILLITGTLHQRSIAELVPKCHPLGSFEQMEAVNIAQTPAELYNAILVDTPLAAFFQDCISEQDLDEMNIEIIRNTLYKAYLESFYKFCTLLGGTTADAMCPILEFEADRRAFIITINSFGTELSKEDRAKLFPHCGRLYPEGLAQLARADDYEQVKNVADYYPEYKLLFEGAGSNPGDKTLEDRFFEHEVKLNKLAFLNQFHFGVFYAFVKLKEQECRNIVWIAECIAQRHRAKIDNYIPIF
UniProt O75915: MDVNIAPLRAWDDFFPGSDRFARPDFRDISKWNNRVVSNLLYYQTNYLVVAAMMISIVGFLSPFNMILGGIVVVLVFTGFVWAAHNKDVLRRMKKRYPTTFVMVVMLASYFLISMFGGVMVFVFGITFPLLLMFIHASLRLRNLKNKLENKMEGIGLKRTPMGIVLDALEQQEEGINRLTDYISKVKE
UniProt Q8NBU5: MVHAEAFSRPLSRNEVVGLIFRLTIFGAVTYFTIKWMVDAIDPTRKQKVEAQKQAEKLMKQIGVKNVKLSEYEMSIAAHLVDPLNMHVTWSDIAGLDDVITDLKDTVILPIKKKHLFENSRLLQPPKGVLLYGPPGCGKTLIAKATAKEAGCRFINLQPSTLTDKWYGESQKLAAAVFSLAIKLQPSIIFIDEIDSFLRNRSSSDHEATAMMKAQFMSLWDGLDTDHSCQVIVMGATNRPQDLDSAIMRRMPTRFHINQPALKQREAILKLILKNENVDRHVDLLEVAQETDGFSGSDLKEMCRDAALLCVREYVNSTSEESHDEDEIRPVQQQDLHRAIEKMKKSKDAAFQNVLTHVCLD

Assays:
Assay in all cases: log2 fold change, soluble protein after heating vs DMSO (PISA); higher = thermal stabilisation; K562 cells, 10 uM, 30 min; active = over 0.2 and 3.5 SD of the protein, either way, in both replicates (recomputed)
[1] = compound: COC1=CC=C(C=C1)CN2C=CC3=C2C=C(C=C3)C(=O)NO
In short: (§1)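 Aliquots of K562 cells (2×10^6 cells/mL) treated with 10 μM compound for 30 min were heated for 3 min over 48°C-58°C. After pooling and extraction in PBS with 0.5% NP-40 at 4°C, soluble protein from a 21,000xg, 90 min spin was quantified by TMTpro 16plex LC-MS/MS with channel sums equalised. Thermal stability is expressed against control samples, from duplicates, as a log2 fold change.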

filanesib = compound: CON(C)C(=O)N1N=C(c2cc(F)ccc2F)S[C@@]1(CCCN)c1ccccc1 [filanesib]
In short: as §1

zotarolimus = compound: CO[C@H]1C[C@@H]2CC[C@@H](C)[C@@](O)(O2)C(=O)C(=O)N2CCCC[C@H]2C(=O)O[C@H]([C@H](C)C[C@@H]2CC[C@H](n3cnnn3)[C@H](OC)C2)CC(=O)[C@H](C)/C=C(\C)[C@@H](O)[C@@H](OC)C(=O)[C@H](C)C[C@H](C)/C=C/C=C/C=C/1C [zotarolimus]
In short: as §1

idasanutlin = compound: COc1cc(C(=O)O)ccc1NC(=O)[C@@H]1N[C@@H](CC(C)(C)C)[C@](C#N)(c2ccc(Cl)cc2F)[C@H]1c1cccc(Cl)c1F [idasanutlin]
In short: as §1

alisertib = compound: COc1cc(Nc2ncc3c(n2)-c2ccc(Cl)cc2C(c2c(F)cccc2OC)=NC3)ccc1C(=O)O [alisertib]
In short: as §1

[2] = compound: COc1cc2nc(-c3cc(F)ccc3O)nc(N[C@@H]3CNC[C@H]3C(C)(C)O)c2cc1OC
In short: as §1

gefitinib = compound: COc1cc2ncnc(Nc3ccc(F)c(Cl)c3)c2cc1OCCCN1CCOCC1 [gefitinib]
In short: as §1

[3] = compound: COc1cccc2cc(-c3nc([C@H]4CC[C@H](C(=O)O)CC4)n4ncnc(N)c34)[nH]c12
In short: as §1

lapatinib = compound: CS(=O)(=O)CCNCc1ccc(-c2ccc3ncnc(Nc4ccc(OCc5cccc(F)c5)c(Cl)c4)c3c2)o1 [lapatinib]
In short: as §1

pictilisib = compound: CS(=O)(=O)N1CCN(Cc2cc3nc(-c4cccc5[nH]ncc45)nc(N4CCOCC4)c3s2)CC1 [pictilisib]
In short: as §1

| Target | log2 fold change [1] | log2 fold change (filanesib) | log2 fold change (zotarolimus) | log2 fold change (idasanutlin) | log2 fold change (alisertib) | log2 fold change [2] | log2 fold change (gefitinib) | log2 fold change [3] | log2 fold change (lapatinib) | log2 fold change (pictilisib) |
| --- | --- | --- | --- | --- | --- | --- | --- | --- | --- | --- |
| ARSA (UniProt P15289) | inactive: 0.082 | inactive: 0.025 | inactive: 0.016 | inactive: 0.017 | inactive: -0.018 | inactive: 0.146 | inactive: -0.07 | inactive: 0.07 | inactive: 0.037 | inactive: 0.145 |
| ATP6AP1 (UniProt Q15904) | inactive: -0.099 | inactive: -0.064 | inactive: 0.025 | inactive: 0.009 | inactive: 0.166 | inactive: -0.068 | inactive: -0.009 | inactive: -0.057 | inactive: 0.019 | inactive: -0.017 |
| ATG4B isoform 2 (UniProt Q9Y4P1) | inactive: -0.003 | inactive: -0.142 | inactive: 0.048 | inactive: -0.045 | inactive: -0.009 | inactive: -0.058 | inactive: 0.005 | inactive: -0.082 | inactive: -0.157 | inactive: -0.311 |
| ARPC5 (UniProt O15511) | inactive: 0.009 | inactive: 0.023 | inactive: -0.035 | inactive: -0.004 | inactive: 0.006 | inactive: 0.04 | inactive: -0.003 | inactive: 0.078 | inactive: 0.004 | inactive: 0.043 |
| ATG2B (UniProt Q96BY7) | inactive: -0.065 | inactive: -0.002 | inactive: -0.027 | inactive: 0.045 | inactive: -0.024 | inactive: -0.043 | inactive: 0.041 | inactive: 0.067 | inactive: 0.132 | inactive: 0.04 |
| ASF1A (UniProt Q9Y294) | inactive: -0.008 | inactive: -0.093 | inactive: -0.007 | inactive: 0.013 | inactive: -0.038 | inactive: 0.024 | inactive: 0.005 | inactive: 0.036 | inactive: -0.001 | inactive: 0.002 |
| ATP5F1E (UniProt P56381) | inactive: 0.012 | inactive: -0.01 | inactive: 0 | inactive: -0.016 | inactive: -0.065 | inactive: -0.003 | inactive: 0.025 | inactive: 0.02 | inactive: -0.048 | inactive: -0.04 |
| ATL2 (UniProt Q8NHH9) | inactive: -0.006 | inactive: -0.03 | inactive: 0.026 | inactive: -0.052 | inactive: 0.008 | inactive: 0.148 | inactive: 0.016 | inactive: 0.034 | inactive: -0.039 | inactive: 0.003 |
| ATAD3A isoform 2 (UniProt Q9NVI7) | inactive: -0.029 | inactive: -0.005 | inactive: -0.053 | inactive: 0.073 | inactive: -0.006 | inactive: -0.116 | inactive: -0.199 | inactive: 0.001 | inactive: -0.029 | inactive: -0.185 |
| ARV1 (UniProt Q9H2C2) | inactive: -0.058 | inactive: -0.094 | inactive: -0.032 | inactive: -0.043 | inactive: 0.007 | inactive: -0.131 | inactive: -0.018 | inactive: 0.086 | inactive: 0.033 | inactive: -0.051 |
| ARPC1A (UniProt Q92747) | inactive: -0.041 | inactive: 0.017 | inactive: 0.004 | inactive: -0.014 | inactive: 0.335 | inactive: 0.065 | inactive: -0.019 | inactive: 0.108 | inactive: -0.009 | inactive: -0.033 |
| ARIH2 (UniProt O95376) | inactive: -0.01 | inactive: -0.082 | inactive: 0.011 | inactive: 0.041 | inactive: -0.055 | inactive: -0.014 | inactive: 0.037 | inactive: -0.007 | inactive: 0.002 | inactive: -0.029 |
| ATP2B4 (UniProt P23634) | inactive: -0.007 | inactive: 0.11 | inactive: -0.039 | inactive: 0.001 | inactive: -0.097 | inactive: 0.036 | inactive: 0.043 | inactive: 0.103 | inactive: -0.016 | inactive: 0.014 |
| ATP5F1D (UniProt P30049) | inactive: -0.028 | inactive: 0.037 | inactive: 0.011 | inactive: -0.118 | inactive: -0.076 | inactive: -0.066 | inactive: 0.009 | inactive: 0.014 | inactive: -0.063 | inactive: 0 |
| ATP11A (UniProt P98196) | inactive: -0.027 | inactive: 0.036 | inactive: 0.011 | inactive: 0.004 | inactive: 0.23 | inactive: 0.026 | inactive: 0.057 | inactive: 0.015 | inactive: -0.033 | inactive: 0.007 |
| ATP12A isoform 2 (UniProt P54707) | inactive: -0.034 | inactive: -0.015 | inactive: -0.015 | inactive: 0.016 | inactive: -0.008 | inactive: 0.071 | inactive: 0.032 | inactive: 0.043 | inactive: -0.074 | inactive: 0.1 |
| ATP6V0A1 isoform 3 (UniProt Q93050) | inactive: 0.021 | inactive: -0.105 | inactive: 0.073 | inactive: 0.112 | inactive: 0.027 | inactive: -0.298 | inactive: -0.18 | inactive: -0.21 | inactive: 0.033 | inactive: -0.284 |
| ARMT1 (UniProt Q9H993) | inactive: 0.017 | inactive: -0.033 | inactive: -0.013 | inactive: -0.021 | inactive: -0.023 | inactive: 0.039 | inactive: -0.123 | inactive: -0.173 | inactive: -0.034 | inactive: -0.024 |
| ATP11C (UniProt Q8NB49) | inactive: 0.061 | inactive: 0.006 | inactive: -0.047 | inactive: 0.006 | inactive: -0.034 | inactive: 0.063 | inactive: -0.005 | inactive: 0.031 | inactive: 0.032 | inactive: 0.092 |
| ATF2 (UniProt P15336) | inactive: -0.045 | inactive: 0.056 | inactive: 0.03 | inactive: -0.02 | inactive: 0.096 | inactive: 0.086 | inactive: 0.061 | inactive: 0.279 | inactive: -0.009 | inactive: -0.079 |
| ATG13 isoform 5 (UniProt O75143) | inactive: 0.015 | inactive: 0.042 | inactive: -0.025 | inactive: 0.037 | inactive: 0.009 | inactive: -0.058 | inactive: -0.017 | inactive: -0.059 | inactive: -0.009 | inactive: 0.065 |
| ATP13A2 (UniProt Q9NQ11) | inactive: 0.053 | inactive: -0.134 | inactive: 0.023 | inactive: 0.027 | inactive: -0.143 | inactive: 0.019 | inactive: -0.005 | inactive: 0.053 | inactive: -0.005 | inactive: 0.066 |
| ATP6V0D1 (UniProt P61421) | inactive: -0.069 | inactive: 0.013 | inactive: 0.079 | inactive: 0.089 | inactive: -0.045 | inactive: -0.24 | inactive: -0.123 | inactive: -0.176 | inactive: 0.002 | inactive: -0.141 |
| ATP1A3 isoform 3 (UniProt P13637) | inactive: -0.026 | inactive: 0.064 | inactive: -0.052 | inactive: 0.042 | inactive: -0.023 | inactive: 0.093 | inactive: 0.032 | inactive: 0.058 | inactive: -0.042 | inactive: 0.081 |
| ATOX1 (UniProt O00244) | active: 0.471 | inactive: -0.122 | inactive: 0.113 | inactive: -0.096 | inactive: -0.062 | inactive: -0.388 | inactive: -0.036 | inactive: -0.07 | inactive: 0.314 | inactive: -0.015 |
| ARL6IP5 (UniProt O75915) | inactive: -0.095 | inactive: -0.101 | inactive: -0.085 | inactive: -0.066 | inactive: -0.034 | inactive: 0.078 | inactive: -0.039 | inactive: 0.006 | inactive: -0.053 | inactive: 0.014 |
| ATG101 (UniProt Q9BSB4) | inactive: -0.002 | inactive: -0.066 | inactive: -0.008 | inactive: -0.048 | inactive: -0.112 | inactive: 0.005 | inactive: -0.07 | inactive: 0.041 | inactive: -0.02 | inactive: -0.046 |
| ATP1B1 (UniProt P05026) | inactive: -0.058 | inactive: 0.16 | inactive: 0.018 | inactive: -0.016 | inactive: -0.049 | inactive: 0.11 | inactive: -0.018 | inactive: 0.064 | inactive: -0.062 | inactive: 0.035 |
| ATAD1 (UniProt Q8NBU5) | inactive: 0.009 | inactive: -0.045 | inactive: 0.087 | inactive: -0.046 | inactive: -0.037 | inactive: -0.014 | inactive: 0.003 | inactive: -0.029 | inactive: 0.007 | inactive: 0.012 |
| ATP5MG (UniProt O75964) | inactive: -0.134 | inactive: -0.012 | inactive: -0.064 | inactive: 0.011 | inactive: -0.028 | inactive: 0.031 | inactive: 0.011 | inactive: 0.082 | inactive: -0.094 | inactive: 0.212 |

Quoted from the entries so far for reference:

| Target | log2 fold change [1] | log2 fold change (filanesib) | log2 fold change (zotarolimus) | log2 fold change (idasanutlin) | log2 fold change (alisertib) | log2 fold change [2] | log2 fold change (gefitinib) | log2 fold change [3] | log2 fold change (lapatinib) | log2 fold change (pictilisib) |
| --- | --- | --- | --- | --- | --- | --- | --- | --- | --- | --- |
| ATP11C (UniProt Q8NB49) | inactive: 0.061 | inactive: 0.006 | inactive: -0.047 | inactive: 0.006 | inactive: -0.034 | inactive: 0.063 | inactive: -0.005 | inactive: 0.031 | inactive: 0.032 | inactive: 0.092 |
| ATF2 (UniProt P15336) | inactive: -0.045 | inactive: 0.056 | inactive: 0.03 | inactive: -0.02 | inactive: 0.096 | inactive: 0.086 | inactive: 0.061 | inactive: 0.279 | inactive: -0.009 | inactive: -0.079 |
